{"source": "PubChem BioAssay AID1347076", "about": "(National Center for Advancing Translational Sciences (NCATS), 2019)", "note": "Out of some 400,000 compounds screened, about 13,000 (3.2%) were called active. The inconclusive results got no clear call from the source; some entries with a clear call stand among them for comparison. Calls follow the shape of the dose curve; as a rule, active = well fitted cell-killing curve with a large enough effect; inconclusive = small, poorly fitted or top-dose-only effect, or effect the other way; inactive = flat fitted curve, though single readings scatter. A potency beside an inconclusive call is a rough fit, not a confirmed value. % is scaled to controls: 0 for no effect and ±100 for the full control effect; potency is read from the fitted curve at half-maximal effect."}
{"experiment": "qHTS assay for MDR1-selective chemotherapeutics: Primary screen using the drug-selected MDR subline cells KB-V1; also: nearly all actives have a fitted effect of over 60% in size", "settings": "KB-V1 MDR cells viability, CellTiter-Glo, 72 h; activity change, negative = cytotoxicity: at 46.1 µM (top of the series)", "in_short": "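Luminescent ATP read-out (CellTiter-Glo, 10 min) measures survival of drug-selected KB-V1 MDR cells after 72 h, 37 degrees C compound exposure. Medium: phenol-red-free DMEM, 10% FBS. Values from fitted concentration-response curves.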"}
{"smiles": "CCC(C(=O)Nc1cc(Cl)c(OC)cc1OC)c1ccccc1", "note": "(stereo not given)", "activity change, negative = cytotoxicity": "inactive: -30.5%"}
{"smiles": "CC(=O)c1ccc(N2CCN(S(=O)(=O)c3csc(C(N)=O)c3)CC2)cc1", "Potency": "inconclusive: 29.1 µM [rising, single point]"}
{"smiles": "O=C1c2ccccc2-c2onc3c(N4CCN(CCO)CC4)cc(N4CCN(C(=O)c5ccco5)CC4)c1c23", "Potency": "inconclusive: 29.1 µM [cytotoxic, single point]"}
{"smiles": "CCN(CC)CCCN(C(=O)c1ccc(OC)cc1)c1nc(-c2ccc(OC)cc2)cs1", "activity change, negative = cytotoxicity": "inactive: -5.16%"}
{"smiles": "Cc1ccc(Cn2ncc3c(N4CCCC4)ncnc32)cc1", "activity change, negative = cytotoxicity": "inactive: -4.53%"}
{"smiles": "COc1ccc(/C=N/c2oc(-c3ccccc3)cc2C#N)cc1OC", "activity change, negative = cytotoxicity": "inactive: -29%"}
{"smiles": "CCOC(=O)C1(CCCc2ccccc2)CCN(C(=O)CCc2cnccn2)CC1", "activity change, negative = cytotoxicity": "inactive: 0%"}
{"smiles": "CC(=O)Nc1cccc(-c2cc(NC=O)c3ncc(-c4ccc(F)c(Cl)c4)n3c2)c1", "Potency": "inconclusive: 29.1 µM [cytotoxic, partial curve, poor fit]"}
{"smiles": "FC(F)Oc1ccc(NC(=S)Nc2ccc3cn[nH]c3c2)cc1", "Potency": "inconclusive: 29.1 µM [rising, single point]"}
{"smiles": "CC(=O)CC(C)(C)Nc1nc2ccc([N+](=O)[O-])cc2o1", "activity change, negative = cytotoxicity": "inconclusive: 14.5%"}
{"smiles": "COc1ccc(NC(=O)C2CCCCN2N)cc1OCC(C)C", "note": "(stereo not given)", "Potency": "inconclusive: 29.1 µM [cytotoxic, single point]"}
{"smiles": "COc1ccc(NC(=O)C2CCC(CNS(=O)(=O)c3csc(C(N)=O)c3)CC2)cc1", "note": "(stereo not given)", "activity change, negative = cytotoxicity": "inactive: 10.9%"}
{"smiles": "COCCNC(=S)NNc1ccccc1[N+](=O)[O-]", "Potency": "inconclusive: 2.91 µM [cytotoxic, partial curve, poor fit]"}
{"smiles": "CN(C)C(CNC(=O)C1CC(=O)N(c2cccc(C(F)(F)F)c2)C1)c1ccccc1", "note": "(stereo not given)", "Potency": "inconclusive: 29.1 µM [cytotoxic, single point]"}
{"smiles": "COc1ccccc1Nc1nnc(SCC(=O)N2CCCC2)s1", "Potency": "active: 13 µM"}
{"smiles": "CCCNC(=S)N1CCC(C(=O)c2ccc(OC)cc2)CC1", "Potency": "inconclusive: 18.4 µM [cytotoxic, single point]"}
{"smiles": "COc1cc(C(=O)Nc2nccs2)c(Br)c(OC)c1OC", "Potency": "inconclusive: 18.4 µM [cytotoxic, single point]"}
{"smiles": "CCOc1ccccc1NC(=O)CSc1nc(=O)n(CCCN2CCOCC2)c2c1CCCC2", "activity change, negative = cytotoxicity": "inactive: -11.9%"}
{"smiles": "O=C(NCCC1=CCCCC1)C1CCC(=O)N(Cc2ccc(Cl)cc2)C1", "note": "(stereo not given)", "Potency": "inconclusive: 7.31 µM [cytotoxic, partial curve, poor fit]"}
{"smiles": "O=C(Nc1ccc(F)cc1F)c1cc(=O)n(-c2ccccc2)c(=O)[nH]1", "Potency": "inconclusive: 23.1 µM [rising, single point]"}
{"smiles": "CCCC(=O)NCCc1ccc(S(N)(=O)=O)cc1", "Potency": "inconclusive: 23.1 µM [rising, partial curve, poor fit]"}
{"smiles": "Cc1ccc(Cn2nc(C)c(/C=N/NC(=O)c3cccnc3)c2C)cc1", "Potency": "inconclusive: 18.4 µM [cytotoxic, single point]"}
{"smiles": "CCc1nn2cc(C(=O)c3cc(Cl)ccc3O)cnc2c1-c1ccc(F)cc1", "Potency": "inconclusive: 29.1 µM [cytotoxic, single point]"}
{"smiles": "Cc1nc(NCC(c2ccccc2)N(C)C)c2c(C)c(C)sc2n1", "note": "(stereo not given)", "Potency": "inconclusive: 1.16 µM [cytotoxic, partial curve, poor fit]"}
{"smiles": "C/C(=N\\NC(=O)CCc1ccc(S(=O)(=O)N2CCOCC2)cc1)c1ccc(Br)cc1", "Potency": "inconclusive: 20.6 µM [cytotoxic, partial curve, poor fit]"}
{"smiles": "CCOC(=O)c1c(C)[nH]c(C(=O)OC(C(=O)N(C)C)c2ccccc2)c1C", "note": "(stereo not given)", "activity change, negative = cytotoxicity": "inactive: 0%"}
{"smiles": "Cc1ccc(S(=O)(=O)Cn2nnnc2C(c2ccc(F)cc2)N2CCCCC2)cc1", "note": "(stereo not given)", "activity change, negative = cytotoxicity": "inactive: -15%"}
{"smiles": "CCCNC(=S)N1CCC(C(=O)c2ccc3c(c2)OCCO3)CC1", "Potency": "inconclusive: 23.1 µM [cytotoxic, single point]"}
{"smiles": "COc1ccc(CNC(=O)C2CCCN2CCc2ccccc2)cc1OC", "note": "(stereo not given)", "Potency": "inconclusive: 18.4 µM [cytotoxic, single point]"}
{"smiles": "Oc1ccc(-c2nc3ccccc3s2)cc1", "Potency": "inconclusive: 2.91 µM [rising, full curve]"}
{"smiles": "CC1(C)CC(=O)c2c(-c3cccs3)n[nH]c2C1", "Potency": "inconclusive: 12.6 µM [cytotoxic, single point]"}
{"smiles": "Cc1ccccc1CSCC(=O)c1c(N)n(CC(C)C)c(=O)n(C)c1=O", "Potency": "active: 18.4 µM"}
{"smiles": "CCOC(=O)c1sc2ncnc(NCc3ccco3)c2c1C", "Potency": "inconclusive: 32.6 µM [cytotoxic, single point]"}
{"smiles": "COc1cccc(CN(C(=O)c2ccco2)C2CCS(=O)(=O)C2)c1", "note": "(stereo not given)", "Potency": "inconclusive: 0.0206 µM [rising, full curve, poor fit]"}
{"smiles": "O=C(Nc1ccc(Cl)c(C(F)(F)F)c1)C1Cc2c(-c3ccc4c(c3)OCO4)ccnc2O1", "note": "(stereo not given)", "activity change, negative = cytotoxicity": "inactive: -12.1%"}
{"smiles": "O=C(Nc1ccc2c(c1)OCO2)[C@@H]1CCCN1S(=O)(=O)c1cccc2cccnc12", "Potency": "inconclusive: 0.0052 µM [rising, full curve]"}
{"smiles": "O=C(NC1CCCCC1)C1CCN(c2nnnn2-c2ccccc2)CC1", "Potency": "inconclusive: 10.3 µM [cytotoxic, partial curve, poor fit]"}
{"smiles": "CSc1cccc(NC(=S)NN(C)C)c1", "activity change, negative = cytotoxicity": "inactive: -9.93%"}
{"smiles": "Cc1ccc(N(Cc2ccc(C(=O)NCC3CCCO3)cc2)S(C)(=O)=O)cc1C", "note": "(stereo not given)", "Potency": "inconclusive: 2.91 µM [rising, full curve, poor fit]"}
{"smiles": "Cc1nc2c(F)c(F)c(C(F)(F)F)c(F)c2[nH]1", "Potency": "inconclusive: 29.1 µM [cytotoxic, single point]"}
{"smiles": "NC(c1csc(Nc2ccc(C(F)(F)F)cn2)n1)C1CCCCC1", "note": "(stereo not given)", "Potency": "inconclusive: 25.9 µM [cytotoxic, single point]"}
{"smiles": "O=C(CNC(=O)c1ccco1)N=Nc1c(O)n(CCc2ccccc2)c2ccccc12", "Potency": "active: 3.66 µM"}
{"smiles": "CC(=O)c1nnn(-c2nc(N)nc(N(c3ccccc3)c3ccccc3)n2)c1C", "Potency": "active: 10.3 µM"}
{"smiles": "O=C(CN1CCCc2ccccc21)Nc1ccc(F)cc1[N+](=O)[O-]", "activity change, negative = cytotoxicity": "inactive: -3.96%"}
{"smiles": "COc1cccc(-c2cc(C(=O)Nc3ccc([N+](=O)[O-])cn3)c3ccccc3n2)c1", "activity change, negative = cytotoxicity": "inactive: -10.6%"}
